In PMC9497199 one finds binding data, which are given here for two substances.

Sequences of proteins named here, by UniProt entry; tags and fusion partners are left off.
UniProt Q99708: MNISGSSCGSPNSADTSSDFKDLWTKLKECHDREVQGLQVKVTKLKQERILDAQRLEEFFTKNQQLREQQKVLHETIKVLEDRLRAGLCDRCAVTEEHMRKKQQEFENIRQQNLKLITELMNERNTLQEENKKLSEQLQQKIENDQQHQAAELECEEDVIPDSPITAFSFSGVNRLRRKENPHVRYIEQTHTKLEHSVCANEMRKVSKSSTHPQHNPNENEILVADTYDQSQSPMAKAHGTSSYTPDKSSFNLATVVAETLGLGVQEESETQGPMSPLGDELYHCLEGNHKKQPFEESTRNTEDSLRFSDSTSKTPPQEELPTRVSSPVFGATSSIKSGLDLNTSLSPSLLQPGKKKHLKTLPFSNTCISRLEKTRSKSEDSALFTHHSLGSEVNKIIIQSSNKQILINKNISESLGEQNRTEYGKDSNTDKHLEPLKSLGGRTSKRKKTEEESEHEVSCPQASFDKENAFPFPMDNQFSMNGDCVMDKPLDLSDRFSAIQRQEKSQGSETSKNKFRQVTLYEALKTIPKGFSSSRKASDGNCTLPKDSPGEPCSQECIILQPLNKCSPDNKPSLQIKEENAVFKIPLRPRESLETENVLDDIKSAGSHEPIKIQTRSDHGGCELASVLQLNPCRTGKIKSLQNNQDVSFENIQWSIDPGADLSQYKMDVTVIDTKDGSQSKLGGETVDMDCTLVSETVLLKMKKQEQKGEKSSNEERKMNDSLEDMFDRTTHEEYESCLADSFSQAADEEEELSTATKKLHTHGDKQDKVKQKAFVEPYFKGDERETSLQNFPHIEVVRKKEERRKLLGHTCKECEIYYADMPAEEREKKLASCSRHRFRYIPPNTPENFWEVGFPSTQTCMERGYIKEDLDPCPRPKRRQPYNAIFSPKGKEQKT
UniProt Q9ULW0: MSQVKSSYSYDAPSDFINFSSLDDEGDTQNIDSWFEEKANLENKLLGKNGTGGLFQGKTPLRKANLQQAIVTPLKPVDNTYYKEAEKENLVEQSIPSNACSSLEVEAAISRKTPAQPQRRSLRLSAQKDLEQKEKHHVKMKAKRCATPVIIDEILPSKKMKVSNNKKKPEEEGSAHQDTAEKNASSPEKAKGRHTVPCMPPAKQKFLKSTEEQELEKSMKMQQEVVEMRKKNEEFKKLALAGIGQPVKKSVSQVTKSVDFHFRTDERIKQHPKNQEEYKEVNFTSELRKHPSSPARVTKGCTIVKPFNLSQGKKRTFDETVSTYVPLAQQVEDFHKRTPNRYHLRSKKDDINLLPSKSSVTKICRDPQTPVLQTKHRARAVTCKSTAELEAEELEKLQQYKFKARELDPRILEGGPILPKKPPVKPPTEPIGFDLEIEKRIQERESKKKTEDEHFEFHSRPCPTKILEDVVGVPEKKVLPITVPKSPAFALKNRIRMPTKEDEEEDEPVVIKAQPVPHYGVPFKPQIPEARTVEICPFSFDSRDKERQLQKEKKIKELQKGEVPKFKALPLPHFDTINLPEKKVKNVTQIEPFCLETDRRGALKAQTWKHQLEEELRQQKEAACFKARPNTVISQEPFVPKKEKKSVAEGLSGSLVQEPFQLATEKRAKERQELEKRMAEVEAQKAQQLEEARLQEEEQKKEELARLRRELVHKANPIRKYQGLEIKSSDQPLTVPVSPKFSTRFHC

For assay [1], the target named is Flag-tagged full length CtIP (human) (UniProt Q99708). The assay is described as follows: co-IP; HEK293T cells co-transfected with Flag-CtIP and HA-TPX2; 1 mg total lysate immunoprecipitated with anti-Flag or anti-HA antibody, protein G sepharose, 4 °C; immunoblot.
Assay [2] addresses endogenous CtIP (human (endogenous in HEK293T)) (UniProt Q99708). Kind of assay: co-IP; endogenous proteins; lysates of HEK293T cells transfected with control siRNA or CtIP siRNA immunoprecipitated with anti-CtIP or anti-TPX2 antibody; immunoblot. For orientation: In western blotting, separated proteins are transferred to a membrane and probed.

No constants are given. Whether binding was seen depends on the method and setting. Binding seen in cells or lysates may run through a third protein. Some results given as binding are weak or reduced against the parent protein; the word gives no strength.

As for “HA-tagged full length TPX2 (from UniProt Q9ULW0 1-747)”, in assay [1], the binding entry is given as “binds”. “endogenous TPX2 (from UniProt Q9ULW0 1-747)”: in assay [2], the binding result is given as “binds”.
